Reference: paper doi:10.1101/2022.12.30.521597 (bioRxiv, 2022)
Results are given in words; binding and its absence hold for the method and conditions named. Binding seen in cells or lysates may run through a third protein. Some binding calls cover weakened binding; strength is not graded here. Tags and fused reporters may be left off the sequences shown.

Molecular target: CLuc-CAM2 (A. thaliana CALMODULIN 2) (A. thaliana) (UniProt P0DH97)
Assay: split reporter

Row | Binder | binding
1 | MLO2-NLuc (natural protein) MADQVKERTLEETSTWAVAVVCFVLLFISIVLEHSIHKIGTWFKKKHKQALFEALEKVKAELMLLGFISLLLTIGQTPISNICISQKVASTMHPCSAAEEAKKYGKKDAGKKDDGDGDKPGRRLLLELAESYIHRRSLATKGYDKCAEKGKVAFVSAYGIHQLHIFIFVLAVVHVVYCIVTYAFGKIKMRTWKSWEEETKTIEYQYSNDPERFRFARDTSFGRRHLNFWSKTRVTLWIVCFFRQFFGSVTKVDYLALRHGFIMAHFAPGNESRFDFRKYIQRSLEKDFKTVVEISPVIWFVAVLFLLTNSYGLRSYLWLPFIPLVVILIVGTKLEVIITKLGLRIQEKGDVVRGAPVVQPGDDLFWFGKPRFILFLIHLVLFTNAFQLAFFAWSTYEFNLNNCFHESTADVVIRLVVGAVVQILCSYVTLPLYALVTQMGSKMKPTVFNDRVATALKKWHHTAKNETKHGRHSGSNTPFSSRPTTPTHGSSPIHLLHNFNNRSVENYPSSPSPRYSGHGHHEHQFWDPESQHQEAETSTHHSLAHESSEPVLASVELPPIRTSKSLRDFSFKK | binds
2 | MLO6-NLuc (natural protein) MADQVKEKTLEETSTWAVAVVCFVLLLISIVIEKLIHKIGSWFKKKNKKALYEALEKVKAELMLMGFISLLLTIGQGYISNICIPKNIAASMHPCSASEEARKYGKKDVPKEDEEENLRRKLLQLVDSLIPRRSLATKGYDKCAEKGKVAFVSAYGMHQLHIFIFVLAVCHVIYCIVTYALGKTKMRRWKKWEEETKTIEYQYSHDPERFRFARDTSFGRRHLSFWSKSTITLWIVCFFRQFFRSVTKVDYLTLRHGFIMAHLAPGSDARFDFRKYIQRSLEEDFKTIVEINPVIWFIAVLFLLTNTNGLNSYLWLPFIPFIVILIVGTKLQVIITKLGLRIQEKGDVVKGTPLVQPGDHFFWFGRPRFILFLIHLVLFTNAFQLAFFVWSTYEFGLKNCFHESRVDVIIRISIGLLVQILCSYVTLPLYALVTQMGSKMKPTVFNERVATALKSWHHTAKKNIKHGRTSESTTPFSSRPTTPTHGSSPIHLLRNAPHKRSRSVDESFANSFSPRNSDFDSWDPESQHETAETSNSNHRSRFGEEESEKKFVSSSVELPPGPGQIRTQHEISTISLRDFSFKR | binds
3 | MLO12-NLuc (natural protein) MAIKERSLEETPTWAVAVVCFVLLFISIMIEYFLHFIGHWFKKKHKKALSEALEKVKAELMLLGFISLLLVVLQTPVSEICIPRNIAATWHPCSNHQEIAKYGKDYIDDGRKILEDFDSNDFYSPRRNLATKGYDKCAEKGKVALVSAYGIHQLHIFIFVLAVFHVLYCIITYALGKTKMKKWKSWERETKTIEYQYANDPERFRFARDTSFGRRHLNIWSKSTFTLWITCFFRQFFGSVTKVDYLTLRHGFIMAHLPAGSAARFDFQKYIERSLEQDFTVVVGISPLIWCIAVLFILTNTHGWDSYLWLPFLPLIVILIVGAKLQMIISKLGLRIQEKGDVVKGAPVVEPGDDLFWFGRPRFILFLIHLVLFTNAFQLAFFVWSTYEFTLKNCFHHKTEDIAIRITMGVLIQVLCSYITLPLYALVTQMGTSMRPTIFNDRVANALKKWHHTAKKQTKHGHSGSNTPHSSRPTTPTHGMSPVHLLHNYNNRSLDQQTSFTASPSPPRFSDYSGQGHGHQHFFDPESQNHSYQREITDSEFSNSHHPQVDMASPVREEKEIVEHVKVDLSEFTFKK | binds
